The values below come from patent US6599878B2, “Superoxygenating blood substitutes based on hemoglobin and dihydropyidine compositions” (priority 1992, dated 2003).

For the data set the following is noted: arterial plasma, n = 8.

Take “HbHD: Purified canine hemoglobin (10 gm %) used for isovolemic hemodilution”: the Epinephrine was 219 ± 14 pg/mL and the Norepinephrine is 125 ± 12 pg/mL.
